# Measured values taken from the supplement of paper PMC8728848.
# The list shows a part of the results.
# B1: SUN4P (Saccharomyces cerevisiae), P53616 (protein)
# chain: MGSSHHHHHHSSGLVPRGSHNGSIYGDLADFSGPYEKFEDGTIPCGQFPSGQGVIPISWLDEGGWSGVENTDTSTGGSCKEGSYCSYACQPGMSKTQWPSDQPSDGRSIGGLLCKDGYLYRSNTDTDYLCEWGVDAAYVVSELSNDVAICLTDYPGTENMVIPTYVQAGDSLPLTVVDQDTYYTWQGLKTSAQYYVNNAGISVEDACVWGSSSSGVGNWAPLNFGAGSSDGVAYLSLIPNPNNGNALNFNVKIVAADDSSTVNGECIYENGSFSGGSDGCTVSVTAGKAKFVLYN
# How the values were obtained:
# Assay in all cases: glycan array binding signal (z-score within array); higher = stronger binding
# Details in all cases: glycan notation: IUPAC condensed, linker removed; mutation: R276L
# Fuc(a1-2)Gal = biological target: Fuc(a1-2)Gal
# In short: (§1)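 From the Consortium for Functional Glycomics database, 3228 arrays were curated, keeping only those whose protein sequence was available. Binding is given as a within-array Z-score averaged across arrays sharing a protein sequence and across linkers. Negative Z-scores can be read as non-binding.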
# Fuc(a1-2)Gal(b1-3)GalNAc = biological target: Fuc(a1-2)Gal(b1-3)GalNAc
# In short: as §1
# [1] = biological target: Fuc(a1-2)Gal(b1-3)GalNAc(a1-3)[Fuc(a1-2)]Gal(b1-4)Glc
# In short: as §1
# [2] = biological target: Fuc(a1-2)Gal(b1-3)GalNAc(a1-3)[Fuc(a1-2)]Gal(b1-4)GlcNAc
# In short: as §1
# [3] = biological target: Fuc(a1-2)Gal(b1-3)GalNAc(b1-3)Gal
# In short: as §1
# [4] = biological target: Fuc(a1-2)Gal(b1-3)GalNAc(b1-3)Gal(a1-4)Gal(b1-4)Glc
# In short: as §1
# [5] = biological target: Fuc(a1-2)Gal(b1-3)GalNAc(b1-4)[Neu5Ac(a2-3)]Gal(b1-4)Glc
# In short: as §1
# Fuc(a1-2)Gal(b1-3)GlcNAc = biological target: Fuc(a1-2)Gal(b1-3)GlcNAc
# In short: as §1
# [6] = biological target: Fuc(a1-2)Gal(b1-3)GlcNAc(b1-2)Man(a1-3)[Fuc(a1-2)Gal(b1-3)GlcNAc(b1-2)Man(a1-6)]Man(b1-4)GlcNAc(b1-4)GlcNAc
# In short: as §1
# [7] = biological target: Fuc(a1-2)Gal(b1-3)GlcNAc(b1-2)Man(a1-3)[Fuc(a1-2)Gal(b1-3)GlcNAc(b1-2)Man(a1-6)]Man(b1-4)GlcNAc(b1-4)[Fuc(a1-6)]GlcNAc
# In short: as §1
# [8] = biological target: Fuc(a1-2)Gal(b1-3)GlcNAc(b1-3)Gal(b1-4)Glc
# In short: as §1
# [9] = biological target: Fuc(a1-2)Gal(b1-3)GlcNAc(b1-3)GalNAc
# In short: as §1
# [10] = biological target: Fuc(a1-2)Gal(b1-3)GlcNAc(b1-3)[Fuc(a1-2)Gal(b1-3)GlcNAc(b1-6)]GalNAc
# In short: as §1
# [11] = biological target: Fuc(a1-2)Gal(b1-3)GlcNAc(b1-3)[Gal(b1-4)GlcNAc(b1-6)]Gal(b1-4)Glc
# In short: as §1
# [12] = biological target: Fuc(a1-2)Gal(b1-3)GlcNAc(b1-3)[Neu5Ac(a2-6)Gal(b1-4)GlcNAc(b1-6)]Gal(b1-4)Glc
# In short: as §1
# [13] = biological target: Fuc(a1-2)Gal(b1-3)GlcNAc6S
# In short: as §1
# [14] = biological target: Fuc(a1-2)Gal(b1-3)[Fuc(a1-4)]GlcNAc
# In short: as §1
# [15] = biological target: Fuc(a1-2)Gal(b1-3)[Fuc(a1-4)]GlcNAc(b1-2)Man(a1-3)[Fuc(a1-2)Gal(b1-3)[Fuc(a1-4)]GlcNAc(b1-2)Man(a1-3)]Man(b1-4)GlcNAc(b1-4)GlcNAc
# In short: as §1
# [16] = biological target: Fuc(a1-2)Gal(b1-3)[Fuc(a1-4)]GlcNAc(b1-2)Man(a1-3)[Fuc(a1-2)Gal(b1-3)[Fuc(a1-4)]GlcNAc(b1-2)Man(a1-6)]Man(b1-4)GlcNAc(b1-4)[Fuc(a1-6)]GlcNAc(b1-4)[Fuc(a1-6)]GlcNAc
# In short: as §1
# [17] = biological target: Fuc(a1-2)Gal(b1-3)[Fuc(a1-4)]GlcNAc(b1-3)[Fuc(a1-3)[Gal(b1-4)]GlcNAc(b1-6)]Gal(b1-4)Glc
# In short: as §1
# [18] = biological target: Fuc(a1-2)Gal(b1-3)[Fuc(a1-4)]GlcNAc(b1-3)[Gal(b1-4)GlcNAc(b1-6)]Gal(b1-4)Glc
# In short: as §1
# [19] = biological target: Fuc(a1-2)Gal(b1-4)Fuc(a1-3)]GlcNAc(b1-2)Man(a1-3)[Fuc(a1-2)Gal(b1-4)[Fuc(a1-3)]GlcNAc(b1-2)Man(a1-6)]Man(b1-4)GlcNAc(b1-4)GlcNAc
# In short: as §1
binder,measurement,setting,value
B1,glycan array binding signal (z-score),Fuc(a1-2)Gal,-0.421
same,glycan array binding signal (z-score),Fuc(a1-2)Gal(b1-3)GalNAc,-0.45
same,glycan array binding signal (z-score),[1],-1.53
same,glycan array binding signal (z-score),[2],-1.35
same,glycan array binding signal (z-score),[3],0.452
same,glycan array binding signal (z-score),[4],-0.695
same,glycan array binding signal (z-score),[5],-0.582
same,glycan array binding signal (z-score),Fuc(a1-2)Gal(b1-3)GlcNAc,-0.181
same,glycan array binding signal (z-score),[6],-0.418
same,glycan array binding signal (z-score),[7],-0.67
same,glycan array binding signal (z-score),[8],-0.334
same,glycan array binding signal (z-score),[9],-0.616
same,glycan array binding signal (z-score),[10],-0.484
same,glycan array binding signal (z-score),[11],0.246
same,glycan array binding signal (z-score),[12],-0.454
same,glycan array binding signal (z-score),[13],-1.78
same,glycan array binding signal (z-score),[14],0.13
same,glycan array binding signal (z-score),[15],-0.222
same,glycan array binding signal (z-score),[16],1.49
same,glycan array binding signal (z-score),[17],-1.15
same,glycan array binding signal (z-score),[18],-0.39
same,glycan array binding signal (z-score),[19],0.418

# Part of the list above, set out differently:
binder	measurement	setting	value
B1	glycan array binding signal (z-score)	[8]	-0.334
same	glycan array binding signal (z-score)	[9]	-0.616
